# Results from article doi:10.1101/2025.01.07.631702 (bioRxiv, 2025).
# Amino acid sequences for entries named in this document (tags omitted). Residues count along the entry.
# UniProt P02769, residues 25-607: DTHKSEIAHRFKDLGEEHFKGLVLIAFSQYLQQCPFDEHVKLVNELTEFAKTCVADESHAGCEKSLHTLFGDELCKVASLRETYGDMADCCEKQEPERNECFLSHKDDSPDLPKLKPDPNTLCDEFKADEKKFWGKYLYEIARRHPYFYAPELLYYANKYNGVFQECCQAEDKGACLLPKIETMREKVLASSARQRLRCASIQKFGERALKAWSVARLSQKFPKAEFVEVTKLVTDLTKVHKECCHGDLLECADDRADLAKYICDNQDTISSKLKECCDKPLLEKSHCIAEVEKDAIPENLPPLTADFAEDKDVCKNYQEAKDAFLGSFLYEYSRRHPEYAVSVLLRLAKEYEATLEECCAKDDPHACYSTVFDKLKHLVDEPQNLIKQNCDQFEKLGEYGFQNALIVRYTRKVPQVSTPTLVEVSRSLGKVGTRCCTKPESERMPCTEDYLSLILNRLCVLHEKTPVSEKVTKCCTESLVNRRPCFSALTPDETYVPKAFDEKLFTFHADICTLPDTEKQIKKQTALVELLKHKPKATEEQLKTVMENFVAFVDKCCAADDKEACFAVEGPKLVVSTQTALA
# UniProt Q14520, residues 24-291: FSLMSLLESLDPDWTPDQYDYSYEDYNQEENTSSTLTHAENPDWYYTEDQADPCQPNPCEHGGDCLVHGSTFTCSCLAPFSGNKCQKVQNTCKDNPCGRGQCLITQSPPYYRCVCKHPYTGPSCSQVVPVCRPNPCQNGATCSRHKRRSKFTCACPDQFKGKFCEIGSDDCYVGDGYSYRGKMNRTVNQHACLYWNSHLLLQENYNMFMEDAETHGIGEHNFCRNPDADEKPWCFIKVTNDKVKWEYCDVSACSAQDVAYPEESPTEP
# Results are given in words; binding and its absence hold for the method and conditions named.
# Target: bovine serum albumin (BSA) (bovine) (UniProt P02769)
# Assay: ELISA
substance,measurement,value
heavy-chain (HC-) FSAP (residues 24-291) (from UniProt Q14520 24-291) (domain or fragment),binding,no binding (tested: 0-5 µg/ml)
